Laboratory results from patent US20230272045A1.
These are yes or no findings as the source states them, for the method shown. Some entries that bind do so weakly or less than the wild type.

Sequences of proteins named here, by UniProt entry; tags and fusion partners are left off. A change or cut given only in a name is not applied to a line headed by its entry. A line that says so, or that is headed by a name, gives the form on record, which may keep a tag or linker. Residues count along the entry.
UniProt P02671: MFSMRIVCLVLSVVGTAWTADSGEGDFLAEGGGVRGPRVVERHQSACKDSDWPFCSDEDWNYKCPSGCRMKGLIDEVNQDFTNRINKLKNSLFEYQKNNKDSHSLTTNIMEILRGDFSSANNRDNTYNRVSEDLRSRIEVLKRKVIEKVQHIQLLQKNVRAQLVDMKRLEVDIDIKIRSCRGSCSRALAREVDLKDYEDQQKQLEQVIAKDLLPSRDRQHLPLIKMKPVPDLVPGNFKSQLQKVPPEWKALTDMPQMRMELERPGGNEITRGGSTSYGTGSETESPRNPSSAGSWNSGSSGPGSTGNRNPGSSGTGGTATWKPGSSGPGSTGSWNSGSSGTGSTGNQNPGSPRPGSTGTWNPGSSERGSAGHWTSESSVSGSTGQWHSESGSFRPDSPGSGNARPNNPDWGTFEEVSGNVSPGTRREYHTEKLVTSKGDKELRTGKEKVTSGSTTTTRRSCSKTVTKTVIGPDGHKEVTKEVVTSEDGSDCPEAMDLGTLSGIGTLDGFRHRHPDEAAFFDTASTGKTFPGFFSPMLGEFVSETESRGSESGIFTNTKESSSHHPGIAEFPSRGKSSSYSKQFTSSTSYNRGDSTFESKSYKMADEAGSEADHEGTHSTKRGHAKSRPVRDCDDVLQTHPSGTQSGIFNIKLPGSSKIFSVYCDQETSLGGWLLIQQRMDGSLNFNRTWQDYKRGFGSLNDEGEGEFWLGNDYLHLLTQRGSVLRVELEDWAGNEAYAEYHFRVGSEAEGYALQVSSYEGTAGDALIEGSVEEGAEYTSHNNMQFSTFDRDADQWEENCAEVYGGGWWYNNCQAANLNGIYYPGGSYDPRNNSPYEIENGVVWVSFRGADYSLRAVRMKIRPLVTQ
UniProt P02679: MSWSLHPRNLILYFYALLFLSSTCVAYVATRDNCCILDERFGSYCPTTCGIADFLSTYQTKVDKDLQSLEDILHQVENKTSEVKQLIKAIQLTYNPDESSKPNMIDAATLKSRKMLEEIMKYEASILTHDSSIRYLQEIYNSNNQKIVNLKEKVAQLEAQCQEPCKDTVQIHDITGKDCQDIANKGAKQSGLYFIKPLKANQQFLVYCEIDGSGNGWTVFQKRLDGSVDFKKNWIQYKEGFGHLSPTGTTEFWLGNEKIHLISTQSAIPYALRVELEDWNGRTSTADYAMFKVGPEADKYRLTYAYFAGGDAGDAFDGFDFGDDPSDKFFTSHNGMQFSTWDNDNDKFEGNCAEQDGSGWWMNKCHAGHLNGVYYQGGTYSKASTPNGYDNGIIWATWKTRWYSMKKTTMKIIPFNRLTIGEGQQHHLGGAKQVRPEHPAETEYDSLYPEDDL
human plasma fibronectin (P02751, form named): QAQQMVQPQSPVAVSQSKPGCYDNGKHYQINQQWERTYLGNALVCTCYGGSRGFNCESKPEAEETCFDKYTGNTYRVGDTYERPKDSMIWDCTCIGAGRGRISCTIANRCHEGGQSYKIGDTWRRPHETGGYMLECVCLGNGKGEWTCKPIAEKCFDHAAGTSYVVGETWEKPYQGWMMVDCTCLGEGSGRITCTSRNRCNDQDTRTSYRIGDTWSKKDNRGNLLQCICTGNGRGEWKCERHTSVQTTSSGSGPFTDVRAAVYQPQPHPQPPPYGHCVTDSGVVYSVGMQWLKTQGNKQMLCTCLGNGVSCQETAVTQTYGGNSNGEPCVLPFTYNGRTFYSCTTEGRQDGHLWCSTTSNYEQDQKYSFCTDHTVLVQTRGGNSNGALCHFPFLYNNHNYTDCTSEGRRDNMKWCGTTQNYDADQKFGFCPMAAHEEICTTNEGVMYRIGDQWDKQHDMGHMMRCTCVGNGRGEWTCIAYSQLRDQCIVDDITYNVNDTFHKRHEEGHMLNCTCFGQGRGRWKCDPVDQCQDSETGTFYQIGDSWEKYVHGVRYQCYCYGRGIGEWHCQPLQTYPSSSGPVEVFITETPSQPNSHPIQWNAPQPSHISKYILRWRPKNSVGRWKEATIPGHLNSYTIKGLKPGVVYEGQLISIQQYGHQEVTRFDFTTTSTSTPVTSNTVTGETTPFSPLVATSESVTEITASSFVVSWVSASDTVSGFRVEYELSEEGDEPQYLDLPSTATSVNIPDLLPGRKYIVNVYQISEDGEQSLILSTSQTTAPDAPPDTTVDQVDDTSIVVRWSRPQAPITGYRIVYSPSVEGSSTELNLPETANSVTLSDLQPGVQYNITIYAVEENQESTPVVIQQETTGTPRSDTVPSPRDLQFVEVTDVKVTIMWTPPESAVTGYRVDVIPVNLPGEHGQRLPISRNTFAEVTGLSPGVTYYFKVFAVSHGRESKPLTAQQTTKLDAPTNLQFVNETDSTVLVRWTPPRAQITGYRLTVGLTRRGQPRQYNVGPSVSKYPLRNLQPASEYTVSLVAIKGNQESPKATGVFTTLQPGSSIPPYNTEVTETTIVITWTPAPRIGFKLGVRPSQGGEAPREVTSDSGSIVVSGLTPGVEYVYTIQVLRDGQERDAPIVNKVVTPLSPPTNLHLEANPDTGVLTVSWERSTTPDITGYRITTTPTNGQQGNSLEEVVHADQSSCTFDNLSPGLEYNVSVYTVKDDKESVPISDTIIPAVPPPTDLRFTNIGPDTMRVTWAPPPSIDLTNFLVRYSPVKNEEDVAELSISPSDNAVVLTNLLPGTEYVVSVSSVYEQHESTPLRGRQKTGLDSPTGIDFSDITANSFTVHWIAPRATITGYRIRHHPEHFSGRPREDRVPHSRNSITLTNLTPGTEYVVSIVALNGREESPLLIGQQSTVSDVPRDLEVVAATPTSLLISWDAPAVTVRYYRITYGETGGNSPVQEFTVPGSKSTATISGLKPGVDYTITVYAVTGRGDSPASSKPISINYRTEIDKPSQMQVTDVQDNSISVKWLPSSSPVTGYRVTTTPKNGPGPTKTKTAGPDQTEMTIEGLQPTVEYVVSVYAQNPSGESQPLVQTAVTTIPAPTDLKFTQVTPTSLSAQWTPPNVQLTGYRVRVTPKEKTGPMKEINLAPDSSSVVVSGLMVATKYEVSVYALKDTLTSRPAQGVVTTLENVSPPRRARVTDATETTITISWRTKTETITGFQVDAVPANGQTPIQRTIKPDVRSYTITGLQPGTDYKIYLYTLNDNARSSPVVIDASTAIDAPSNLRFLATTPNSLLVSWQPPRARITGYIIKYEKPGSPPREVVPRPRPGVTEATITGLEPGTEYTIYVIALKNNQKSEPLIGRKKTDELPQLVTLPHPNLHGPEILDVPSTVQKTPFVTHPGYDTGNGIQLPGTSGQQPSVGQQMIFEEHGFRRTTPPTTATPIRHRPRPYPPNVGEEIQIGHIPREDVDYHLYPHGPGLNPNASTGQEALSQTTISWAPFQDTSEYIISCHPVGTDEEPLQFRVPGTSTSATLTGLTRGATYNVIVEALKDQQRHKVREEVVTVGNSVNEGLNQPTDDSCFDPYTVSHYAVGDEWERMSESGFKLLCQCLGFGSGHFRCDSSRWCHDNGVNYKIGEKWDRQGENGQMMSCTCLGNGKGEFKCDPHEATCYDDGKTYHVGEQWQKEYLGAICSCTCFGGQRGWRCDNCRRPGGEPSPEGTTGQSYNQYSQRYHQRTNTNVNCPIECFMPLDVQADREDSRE
UniProt P24821, residues 23-2201: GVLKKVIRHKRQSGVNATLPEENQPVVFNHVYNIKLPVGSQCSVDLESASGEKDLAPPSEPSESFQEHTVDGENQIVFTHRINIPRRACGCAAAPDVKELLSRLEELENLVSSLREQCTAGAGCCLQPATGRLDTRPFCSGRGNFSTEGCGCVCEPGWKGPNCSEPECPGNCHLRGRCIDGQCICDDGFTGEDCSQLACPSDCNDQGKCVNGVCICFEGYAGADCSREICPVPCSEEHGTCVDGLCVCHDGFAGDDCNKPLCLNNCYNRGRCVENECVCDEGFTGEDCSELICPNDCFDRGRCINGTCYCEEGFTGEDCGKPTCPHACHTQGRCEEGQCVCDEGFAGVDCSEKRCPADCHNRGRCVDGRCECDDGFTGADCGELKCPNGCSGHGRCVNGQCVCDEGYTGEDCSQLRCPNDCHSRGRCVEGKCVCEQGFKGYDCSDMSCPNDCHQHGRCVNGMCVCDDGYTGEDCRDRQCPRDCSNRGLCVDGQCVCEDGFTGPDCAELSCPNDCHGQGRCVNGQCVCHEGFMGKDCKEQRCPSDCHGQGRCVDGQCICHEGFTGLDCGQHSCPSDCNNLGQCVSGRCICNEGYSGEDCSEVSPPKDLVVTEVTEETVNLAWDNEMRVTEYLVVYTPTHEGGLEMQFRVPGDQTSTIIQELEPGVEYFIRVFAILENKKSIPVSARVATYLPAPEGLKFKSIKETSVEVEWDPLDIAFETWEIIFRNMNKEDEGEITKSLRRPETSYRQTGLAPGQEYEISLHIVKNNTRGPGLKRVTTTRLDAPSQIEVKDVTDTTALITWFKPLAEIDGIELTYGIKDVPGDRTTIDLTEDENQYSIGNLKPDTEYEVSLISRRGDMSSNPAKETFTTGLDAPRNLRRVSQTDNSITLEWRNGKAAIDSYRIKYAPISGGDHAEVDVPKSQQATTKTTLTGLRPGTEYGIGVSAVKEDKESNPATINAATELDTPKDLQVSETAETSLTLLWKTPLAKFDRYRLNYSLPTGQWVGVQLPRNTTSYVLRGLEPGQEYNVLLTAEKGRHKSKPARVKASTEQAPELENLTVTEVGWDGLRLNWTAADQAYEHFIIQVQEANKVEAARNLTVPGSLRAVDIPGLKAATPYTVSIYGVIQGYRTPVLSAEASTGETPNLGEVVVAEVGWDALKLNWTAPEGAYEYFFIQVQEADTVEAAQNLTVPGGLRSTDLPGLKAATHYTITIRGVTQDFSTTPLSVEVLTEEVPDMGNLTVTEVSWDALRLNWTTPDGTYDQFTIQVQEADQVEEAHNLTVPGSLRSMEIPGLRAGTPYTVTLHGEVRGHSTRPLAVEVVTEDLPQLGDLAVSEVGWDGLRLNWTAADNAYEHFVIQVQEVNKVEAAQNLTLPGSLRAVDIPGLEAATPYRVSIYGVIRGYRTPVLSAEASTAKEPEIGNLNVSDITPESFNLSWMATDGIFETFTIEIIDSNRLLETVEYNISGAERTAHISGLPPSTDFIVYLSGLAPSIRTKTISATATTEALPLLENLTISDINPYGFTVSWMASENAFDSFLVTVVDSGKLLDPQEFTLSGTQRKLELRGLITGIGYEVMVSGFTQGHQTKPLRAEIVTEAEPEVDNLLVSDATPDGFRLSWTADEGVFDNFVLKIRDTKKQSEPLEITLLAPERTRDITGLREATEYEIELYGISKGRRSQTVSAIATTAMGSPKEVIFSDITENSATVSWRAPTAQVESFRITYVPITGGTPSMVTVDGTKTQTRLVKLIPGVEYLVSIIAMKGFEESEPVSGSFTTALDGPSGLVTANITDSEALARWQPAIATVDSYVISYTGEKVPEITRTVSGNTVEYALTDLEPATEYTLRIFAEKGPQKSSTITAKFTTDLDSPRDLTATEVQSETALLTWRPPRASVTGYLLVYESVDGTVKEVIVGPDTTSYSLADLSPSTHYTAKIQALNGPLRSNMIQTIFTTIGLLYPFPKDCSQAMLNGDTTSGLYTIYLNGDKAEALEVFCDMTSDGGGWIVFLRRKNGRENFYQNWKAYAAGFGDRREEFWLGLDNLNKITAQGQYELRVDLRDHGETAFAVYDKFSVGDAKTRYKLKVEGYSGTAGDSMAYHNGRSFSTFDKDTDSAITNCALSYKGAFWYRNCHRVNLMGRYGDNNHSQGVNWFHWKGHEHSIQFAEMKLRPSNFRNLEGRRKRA
UniProt P04004, residues 20-478: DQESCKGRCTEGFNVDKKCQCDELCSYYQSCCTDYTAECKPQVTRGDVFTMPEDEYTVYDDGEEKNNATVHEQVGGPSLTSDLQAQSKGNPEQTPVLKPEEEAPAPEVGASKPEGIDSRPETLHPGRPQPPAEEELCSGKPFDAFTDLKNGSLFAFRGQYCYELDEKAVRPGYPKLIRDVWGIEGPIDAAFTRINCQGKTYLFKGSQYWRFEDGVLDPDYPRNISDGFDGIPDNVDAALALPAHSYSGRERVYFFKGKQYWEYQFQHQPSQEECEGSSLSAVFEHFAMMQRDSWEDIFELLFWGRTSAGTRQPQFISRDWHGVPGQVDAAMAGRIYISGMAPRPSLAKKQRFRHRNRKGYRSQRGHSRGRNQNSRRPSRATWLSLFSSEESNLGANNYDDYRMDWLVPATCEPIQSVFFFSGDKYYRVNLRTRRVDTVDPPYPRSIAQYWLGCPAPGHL
PDGF-BB (murine wild-type platelet-derived growth factor-BB) (P31240, residues 82-190): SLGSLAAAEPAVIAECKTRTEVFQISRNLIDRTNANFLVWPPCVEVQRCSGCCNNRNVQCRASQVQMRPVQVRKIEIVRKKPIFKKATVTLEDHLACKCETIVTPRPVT
PDGF-BB/PIGF123-141 (P31240, form named): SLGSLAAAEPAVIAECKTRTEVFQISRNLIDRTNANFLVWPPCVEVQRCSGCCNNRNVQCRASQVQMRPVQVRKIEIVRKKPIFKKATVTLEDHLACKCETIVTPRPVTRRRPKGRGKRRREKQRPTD

Key:
[1] = molecular target: human fibrinogen (human) (UniProt P02671+P02675+P02679); experiment: ELISA on coated ECM protein
[2] = molecular target: human plasma fibronectin (human) (UniProt P02751); experiment: ELISA on coated ECM protein
[3] = molecular target: human tenascin C (human) (UniProt P24821); experiment: ELISA on coated ECM protein
[4] = molecular target: human vitronectin (human) (UniProt P04004); experiment: ELISA on coated ECM protein
[5] = molecular target: human tenascin C (human) (UniProt P24821); experiment: ELISA on coated ECM protein, anti-PDGF-BB detection; the wild type has the lower affinity

Substance	binding [1]	binding [2]	binding [3]	binding [4]	binding [5]
PDGF-BB/PIGF123-141 (from UniProt P31240 82-190)	binds	binds	binds	binds	
PDGF-BB (murine wild-type platelet-derived growth factor-BB) (from UniProt P31240 82-190) (ligand)					binds
